In this experiment the target is T1, FLAG-tagged miP-FERMT3 fusion protein (human).
T1 sequence: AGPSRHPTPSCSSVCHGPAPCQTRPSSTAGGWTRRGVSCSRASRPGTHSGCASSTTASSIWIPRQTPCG
The experiment can be described thus: affinity purification with mass spectrometry; FLAG-miP-FERMT3 precipitated with anti-FLAG affinity gel from endothelial cell lysates (500 µg, overnight; 50 mmol/L Tris/HCl pH 7.5, 150 mmol/L NaCl, 1% NP-40) three days after adenoviral transduction; LC-MS/MS (DIA); compared to EGFP control.

No constants are given. Whether binding was seen depends on the method and setting. Binding seen in cells or lysates may run through a third protein. Here binding means that the protein was enriched with, or labelled near, the bait; the list need not be complete. Where a sequence is shown, tags or fusion partners need not be part of it.

B1: 26S proteasome non-ATPase regulatory subunit 9 (protein, UniProt O00233 1-223)
chain: MSDEEARQSGGSSQAGVVTVSDVQELMRRKEEIEAQIKANYDVLESQKGIGMNEPLVDCEGYPRSDVDLYQVRTARHNIICLQNDHKAVMKQVEEALHQLHARDKEKQARDMAEAHKEAMSRKLGQSESQGPPRAFAKVNSISPGSPASIAGLQVDDEIVEFGSVNTQNFQSLHNIGSVVQHSEGKPLNVTVIRRGEKHQLRLVPTRWAGKGLLGCNIIPLQR
B1: the binding entry is “binds”.

B2: tripartite motif containing 8 (protein, UniProt Q9BZR9 1-551)
chain: MAENWKNCFEEELICPICLHVFVEPVQLPCKHNFCRGCIGEAWAKDSGLVRCPECNQAYNQKPGLEKNLKLTNIVEKFNALHVEKPPAALHCVFCRRGPPLPAQKVCLRCEAPCCQSHVQTHLQQPSTARGHLLVEADDVRAWSCPQHNAYRLYHCEAEQVAVCQYCCYYSGAHQGHSVCDVEIRRNEIRKMLMKQQDRLEEREQDIEDQLYKLESDKRLVEEKVNQLKEEVRLQYEKLHQLLDEDLRQTVEVLDKAQAKFCSENAAQALHLGERMQEAKKLLGSLQLLFDKTEDVSFMKNTKSVKILMDRTQTCTSSSLSPTKIGHLNSKLFLNEVAKKEKQLRKMLEGPFSTPVPFLQSVPLYPCGVSSSGAEKRKHSTAFPEASFLETSSGPVGGQYGAAGTASGEGQSGQPLGPCSSTQHLVALPGGAQPVHSSPVFPPSQYPNGSAAQQPMLPQYGGRKILVCSVDNCYCSSVANHGGHQPYPRSGHFPWTVPSQEYSHPLPPTPSVPQSLPSLAVRDWLDASQQPGHQDFYRVYGQPSTKHYVTS
B2: the binding result is “binds”.
